One data set can be described thus: general procedure: solution-phase peptide synthesis. The settings on record: coupling step.
For the substance “Boc-Gly-Leu-Phe-Gly-amino diethylmalonate”, the step yield was determined as 66%.
Still for that read-out and setting: then “Boc-Pro-Val-Gly-Leu-Ile-Gly-amino diethylmalonate”, with 53%.

Staying with this data set, now noted: late stage modification step.
In the case of “H2N-Gly-Leu-Phe-Gly-amino diethylmalonate trifluoroacetate”, the step yield turned out to be 94%.
For “HO-Succ-Pro-Val-Gly-Leu-Ile-Gly-amino diethylmalonate”, the step yield came to 94%.
Same read-out and setting: then “tert-BuO-Succ-Gly-Leu-Phe-Gly-amino diethylmalonate”, with 65%; and “tert-BuO-Succ-Pro-Val-Gly-Leu-Ile-Gly-amino diethylmalonate”, with 61%.
